These are yes or no findings as the source states them, for the method shown. Some entries that bind do so weakly or less than the wild type.

Protein sequences, listed by entry. Tags and fused reporters are not part of them. Lines headed by an entry give the natural chain unless they say otherwise; changes in a name come on top.
UniProt P0A9X4: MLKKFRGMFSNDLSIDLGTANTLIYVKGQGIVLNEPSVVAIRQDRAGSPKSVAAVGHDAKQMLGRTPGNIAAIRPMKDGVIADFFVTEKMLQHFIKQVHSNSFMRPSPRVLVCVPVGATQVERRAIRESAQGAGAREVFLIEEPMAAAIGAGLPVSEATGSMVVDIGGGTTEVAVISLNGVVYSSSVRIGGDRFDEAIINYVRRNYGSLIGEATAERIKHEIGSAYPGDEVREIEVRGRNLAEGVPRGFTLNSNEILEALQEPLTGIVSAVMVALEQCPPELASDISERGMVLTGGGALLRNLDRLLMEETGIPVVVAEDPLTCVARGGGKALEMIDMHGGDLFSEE
UniProt P02916: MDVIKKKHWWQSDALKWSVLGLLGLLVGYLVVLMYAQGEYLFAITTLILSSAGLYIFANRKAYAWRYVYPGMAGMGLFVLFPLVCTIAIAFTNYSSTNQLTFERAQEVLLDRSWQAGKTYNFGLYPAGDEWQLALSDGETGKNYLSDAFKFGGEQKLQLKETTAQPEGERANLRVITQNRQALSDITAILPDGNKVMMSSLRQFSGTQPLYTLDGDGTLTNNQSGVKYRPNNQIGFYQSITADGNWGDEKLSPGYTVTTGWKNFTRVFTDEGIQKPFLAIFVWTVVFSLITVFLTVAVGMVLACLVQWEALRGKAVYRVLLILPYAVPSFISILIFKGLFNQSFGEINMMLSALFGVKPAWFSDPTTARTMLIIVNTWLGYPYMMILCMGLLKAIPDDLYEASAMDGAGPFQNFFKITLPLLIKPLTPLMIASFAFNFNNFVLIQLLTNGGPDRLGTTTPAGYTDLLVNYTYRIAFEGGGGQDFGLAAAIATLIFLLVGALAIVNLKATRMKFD

Assay in all cases: two-hybrid; bacterial two-hybrid (BACTH): proteins fused to the T18 or T25 fragment of adenylate cyclase in DHM1 cells, streaked on a plate with X-gal, 37°C overnight; Miller units, average of two independent experiments
One assay concerns the target MreB (E. coli) (UniProt P0A9X4).
The next assay concerns the target T1, MreC (E. coli) (UniProt P16926).
T1 sequence: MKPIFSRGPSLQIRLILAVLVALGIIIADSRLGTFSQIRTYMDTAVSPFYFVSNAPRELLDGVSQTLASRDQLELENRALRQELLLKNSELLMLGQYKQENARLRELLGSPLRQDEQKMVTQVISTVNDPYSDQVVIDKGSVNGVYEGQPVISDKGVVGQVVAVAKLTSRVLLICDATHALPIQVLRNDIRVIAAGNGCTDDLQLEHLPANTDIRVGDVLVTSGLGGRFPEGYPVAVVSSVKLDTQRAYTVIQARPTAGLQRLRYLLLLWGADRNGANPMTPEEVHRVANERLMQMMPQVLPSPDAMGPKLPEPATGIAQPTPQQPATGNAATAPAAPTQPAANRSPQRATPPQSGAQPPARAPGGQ

The target of assay [1] is T2, penicillin-binding protein (PBP) 2 (E. coli) (UniProt P0AD65).
T2 sequence: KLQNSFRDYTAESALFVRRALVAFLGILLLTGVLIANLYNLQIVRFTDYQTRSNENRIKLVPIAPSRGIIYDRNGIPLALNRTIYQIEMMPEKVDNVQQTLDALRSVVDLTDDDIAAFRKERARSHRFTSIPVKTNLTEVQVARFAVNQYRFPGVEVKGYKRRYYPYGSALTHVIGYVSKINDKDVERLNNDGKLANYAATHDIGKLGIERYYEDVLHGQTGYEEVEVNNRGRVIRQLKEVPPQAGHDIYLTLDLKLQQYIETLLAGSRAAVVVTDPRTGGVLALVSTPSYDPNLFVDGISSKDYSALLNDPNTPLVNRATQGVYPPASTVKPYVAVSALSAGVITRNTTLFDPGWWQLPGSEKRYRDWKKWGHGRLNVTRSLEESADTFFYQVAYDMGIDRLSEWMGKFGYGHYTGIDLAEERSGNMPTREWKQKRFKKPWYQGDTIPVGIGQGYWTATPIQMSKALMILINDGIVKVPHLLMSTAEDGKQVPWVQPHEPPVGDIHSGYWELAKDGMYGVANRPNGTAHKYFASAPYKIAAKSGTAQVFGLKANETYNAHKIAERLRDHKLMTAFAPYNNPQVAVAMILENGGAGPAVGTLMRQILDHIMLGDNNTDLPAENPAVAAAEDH

For the next assay, the target named is T3, RodA (E. coli) (UniProt P0ABG7).
T3 sequence: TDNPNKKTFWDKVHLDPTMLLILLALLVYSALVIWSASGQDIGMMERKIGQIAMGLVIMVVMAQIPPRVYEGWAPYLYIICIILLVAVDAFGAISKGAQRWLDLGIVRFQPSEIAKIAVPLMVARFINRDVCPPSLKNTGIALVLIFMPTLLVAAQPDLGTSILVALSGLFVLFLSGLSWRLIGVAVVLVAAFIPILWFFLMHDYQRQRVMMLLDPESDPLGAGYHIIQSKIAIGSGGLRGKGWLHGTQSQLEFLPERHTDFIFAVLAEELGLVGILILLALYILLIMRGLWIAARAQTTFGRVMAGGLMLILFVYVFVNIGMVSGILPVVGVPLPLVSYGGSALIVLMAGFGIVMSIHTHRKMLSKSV

For assay [2], the target named is RMR, chimeric protein of RodZ and MalF in which the transmembrane domain of RodZ (RodZ 112-133) is replaced with the first transmembrane domain of MalF (MalF 17-39) (E. coli) (UniProt P27434+P02916).
The next assay concerns the target RodZ (E. coli) (UniProt P27434).

Consider “RMR, chimeric protein of RodZ and MalF in which the transmembrane domain of RodZ (RodZ 112-133) is replaced with the first transmembrane domain of MalF (MalF 17-39) (from UniProt P27434 2-111; P02916 17-39; P27434 134-337)”, for which the binding entry with MreB (E. coli) is recorded as “binds”; with MreC (E. coli), “binds”; in assay [1], “no binding”; in the assay with RodA (E. coli), “binds”; in assay [2], “binds”.

As to RodZ (from UniProt P27434 1-337), the binding entry with MreB (E. coli) is “binds”; with MreC (E. coli), “binds”; in the assay with RodZ (E. coli) it was “binds”; in assay [1], “no binding”; with RodA (E. coli) it was “binds”.

For the origin of these results see publication PMC10561026.
